For at least one compound, name, drawing or mass did not settle the structure.
Experiment: in vitro stability of 4-Cl-lysine (intramolecular cyclization to lactone, lactam, 4-OH-lysine)
Assay type: physicochemical
Details: estimate

Q: For `NCCC(Cl)C[C@H](N)C(=O)O` (stereo partly shown) [4-Cl-lysine], which in vitro half-life is on record?
A: 30 m-1 h

Reference: US11098336B2, “Biosynthesis of bioorthogonal amino acids” (The Regents of the University of California, priority 2017, dated 2021)
